Measurements as given in PubChem BioAssay AID2685 (National Center for Advancing Translational Sciences (NCATS), 2010).
This is one part of the list. Further columns of the screen follow, without active or inactive calls. Most of these compounds were active or inconclusive in the main read-out, so they are no random draw. Potencies come from curve fits of mixed quality, noted in brackets.

Experiment: qHTS Assay for Lipid Storage Modulators in Drosophila S3 Cells;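 on cell number change: cells counted by Cell Tracker Red CMTPX staining in the red channel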
Settings: BODIPY lipid droplet fluorescence, 18-24 h; for cell number change: measured here: cell count max response, cells fed with added oleic acid
Outline: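 Laser-scanning cytometry quantifies lipid droplet accumulation (500–530 nm total intensity; droplet/cell object ratio) in oleic acid-fed (400 uM added) Drosophila S3 cells treated with a concentration series. 20 uM Triacsin C defined 100% inhibition.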

[1] = measured here: lipid fluorescence (Fed channel) AC50, cells fed with added oleic acid
[2] = measured here: cell number channel AC50, cells fed with added oleic acid

With `CCOC(=O)c1sc2nccc(N(C)C)c2c1N=CN(C)C` the cell number change was 24.8% and the AC50 [1] was 29.1 µM [rising, single point].
With `O=C(CSc1nnnn1-c1cccc(F)c1)NC1CCCCC1` the cell number change was 22.6% and the AC50 [1] was 1.46 µM [falling, partial curve, poor fit].
For `CC1Sc2ccc(S(=O)(=O)N3CCC(C(=O)NCc4ccc(Cl)cc4)CC3)cc2NC1=O` (stereo unspecified), the cell number change was -12.5% and the AC50 [2] was 0.82 µM [rising, single point].
In the case of `COc1ccc(N(CC(=O)N/N=C(\C)c2cccs2)S(=O)(=O)c2ccccc2)cc1Cl`, the cell number change is reported as 22.1%, the AC50 [2] is reported as 0.0206 µM [rising, full curve, poor fit] and the AC50 [1] is reported as 29.1 µM [falling, single point].
Compound `COC(=O)c1[nH]c2ccccc2c1Sc1ccccc1` has a cell number change of -2.13%.
With `CCCOc1ccc(N2C(=O)CC(N(CCc3ccc(OC)c(OC)c3)C(=S)Nc3ccccc3)C2=O)cc1` (stereo unspecified) the cell number change was -7.21% and the AC50 [1] was 8.2 µM [falling, partial curve].
In the case of `CS(=O)(=O)c1cnc2c(S(=O)(=O)c3ccccc3)cnn2c1N`, the cell number change is reported as -48.9%, the AC50 [2] is reported as 3.26 µM [falling, partial curve, poor fit] and the AC50 [1] is reported as 0.0326 µM [falling, full curve].
In the case of `CCCC[C@H]1COCCS(=O)(=O)N1Cc1cccc([N+](=O)[O-])c1`, the cell number change is reported as 18.8%, the AC50 [2] is reported as 7.31 µM [rising, partial curve, poor fit] and the AC50 [1] is reported as 29.1 µM [rising, single point].
`O=C(NCC1CCCO1)c1ccc(COCC(F)(F)C(F)F)cc1` (stereo unspecified) gave a cell number change of 29.1%.
For `O=C(CCN1C(=O)COc2ccccc21)N1CCCCC1`, the cell number change was 41.8%, the AC50 [2] was 7.31 µM [rising, partial curve, poor fit] and the AC50 [1] was 3.26 µM [rising, single point].
For `N#CC1=C(N)Oc2c(O)cc3ccccc3c2C1c1ccsc1` (stereo unspecified), the cell number change was -40.4%, the AC50 [2] was 29.1 µM [falling, single point] and the AC50 [1] was 29.1 µM [falling, single point].
In the case of `CC(C)c1ccc(/C=N/NC(=O)c2cccc(S(=O)(=O)N3CCOCC3)c2)cc1`, the cell number change is reported as 4.87% and the AC50 [2] is reported as 0.00461 µM [rising, full curve, poor fit].
For `COCCNC(=S)N1CCc2cc(OC)c(OC)cc2C1COc1cc(C)cc(C)c1` (stereo unspecified), the cell number change was 0.0569% and the AC50 [1] was 0.206 µM [falling, full curve, poor fit].
In the case of `CCCCn1c(-c2nonc2N)nc2ccccc21`, the cell number change is reported as -30.9% and the AC50 [2] is reported as 16.4 µM [falling, single point].
With `Cc1cccc(OCCNS(=O)(=O)c2ccc(Cl)cc2)c1` the cell number change was -48.3%, the AC50 [2] was 20.6 µM [falling, single point] and the AC50 [1] was 29.1 µM [falling, single point].
For `Cc1ccc2c(c1)[nH]c1c(N3CCN(Cc4ccccc4)CC3)ncnc12`, the cell number change was -9.35% and the AC50 [1] was 6.51 µM [falling, single point].
For `CCOC(=O)NC(=O)c1cn(Nc2ccccc2C(F)(F)F)c(=O)[nH]c1=O`, the cell number change was 6.88% and the AC50 [1] was 23.1 µM [falling, single point].
In the case of `CC(C)c1nc(SCC(=O)N2CCCCCC2)c2c(=O)n(C)c(=O)n(C)c2n1`, the cell number change is reported as -43.5%, the AC50 [2] is reported as 4.61 µM [falling, partial curve] and the AC50 [1] is reported as 1.46 µM [falling, full curve].
Compound `COC(=O)CSc1nnc(CNS(=O)(=O)c2ccc(Br)cc2)n1C` has a cell number change of 189%.
Work on `COc1cc(/C=N/NC(=O)c2ccc(O)cc2)ccc1Oc1ccc([N+](=O)[O-])cn1` yielded a cell number change of -16.2%.
With `CN1CCc2c(sc(/N=C/c3cccs3)c2C(N)=O)C1` the cell number change was -0.694% and the AC50 [1] was 1.03 µM [rising, full curve, poor fit].
With `COCCNc1nnc(SCC(=O)N(C)c2c(N)n(Cc3ccccc3)c(=O)[nH]c2=O)s1` the cell number change was -9.35%, the AC50 [2] was 0.103 µM [falling, full curve, poor fit] and the AC50 [1] was 1.64 µM [falling, partial curve, poor fit].
In the case of `O=C(c1cc2ccccc2o1)N(Cc1ccco1)Cc1cccs1`, the cell number change is reported as 37.3% and the AC50 [2] is reported as 1.3 µM [rising, full curve, poor fit].
In the case of `Cc1ccccc1CSCCNC(=O)CN(c1ccc2c(c1)OCO2)S(C)(=O)=O`, the cell number change is reported as 3.75%.
`COc1ccccc1/C=C/C(=O)NC(=S)N(C)C1CCCCC1` gave a cell number change of 3.74%.
With `COC(=O)c1ccc(CN2C(=O)C3CCCCC3C2=O)o1` (stereo unspecified) the cell number change was -11% and the AC50 [1] was 29.1 µM [falling, single point].
For `COc1cc2c(cc1OC)CN(C1CCC(C)CC1)CC2` (stereo unspecified), the cell number change was -20.7% and the AC50 [1] was 29.1 µM [rising, single point].
For `CC(C)CN(C(=O)CN1CCN(c2ccc([N+](=O)[O-])cc2)CC1)c1c(N)n(CC(C)C)c(=O)[nH]c1=O`, the cell number change was 30.2%, the AC50 [2] was 18.4 µM [rising, single point] and the AC50 [1] was 18.4 µM [rising, single point].
In the case of `C/C(=N\N=C\c1ccc(N(C)C)cc1)c1cccc([N+](=O)[O-])c1`, the cell number change is reported as 27.2% and the AC50 [1] is reported as 0.731 µM [rising, full curve, poor fit].
With `Cc1nc2ccc(NC(=O)c3cccc(C(F)(F)F)c3)cc2o1` the AC50 [2] was 5.17 µM [falling, single point].
In the case of `CC(C)N=c1c([N+](=O)[O-])nn(C)n1O`, the cell number change is reported as -42.3% and the AC50 [2] is reported as 29.1 µM [falling, single point].
For `CCCCOc1ccc(C(=O)NCCC(=O)NCCCC(=O)OCC)cc1`, the cell number change was -33.1% and the AC50 [1] was 29.1 µM [falling, single point].
In the case of `CCOc1ncccc1C(=O)N(CC)CC(=O)NCc1ccc(F)cc1`, the AC50 [1] is reported as 6.51 µM [falling, single point].
Work on `CN(C)c1ccc(/C=C/c2ccc3c4ccccc4ccc3[n+]2-c2ccccc2)cc1` yielded a cell number change of -28.2%.
In the case of `COc1ccc(Oc2nc3c(c(=O)n(C)c(=O)n3C)n2Cc2cccc(OC)c2)cc1`, the cell number change is reported as 21.4% and the AC50 [1] is reported as 0.146 µM [rising, full curve, poor fit].
For `CCCn1c(SCC(=O)NC2CCCCC2)nnc1-c1ccccn1`, the cell number change was 15.7%.
With `Cc1ccc(Cn2nnc3c(=O)n(CC(=O)c4ccccc4)cnc32)cc1` the cell number change was -18% and the AC50 [1] was 5.8 µM [falling, full curve].
For `Cc1ccc2c(COC(=O)c3c(C)noc3C)cc(=O)oc2c1`, the cell number change was -18.5%, the AC50 [2] was 0.146 µM [rising, full curve, poor fit] and the AC50 [1] was 20.6 µM [rising, single point].
In the case of `S=C(NCc1ccccc1)NC1CCSc2ccccc21` (stereo unspecified), the AC50 [1] is reported as 6.51 µM [falling, single point].
In the case of `Cc1nc2c(S(=O)(=O)c3ccccc3)cnn2c(C)c1C`, the cell number change is reported as -39%, the AC50 [2] is reported as 16.4 µM [falling, single point] and the AC50 [1] is reported as 29.1 µM [falling, single point].
For `CC(C(=O)O)c1n[nH]c(=O)c2ccccc12` (stereo unspecified), the cell number change was 12.2% and the AC50 [1] was 29.1 µM [rising, single point].
For `CCn1c(=O)n(CC)c2cc(S(=O)(=O)N3CCCCC3)c(C)cc21`, the cell number change was 19.4%.
For `CC(=O)CSc1cc(C)nc2c(-c3ccccc3)c(C)nn12`, the cell number change was 11% and the AC50 [1] was 1.16 µM [rising, full curve, poor fit].
In the case of `O=[N+]([O-])c1ccccc1OCCCn1cnc2ccccc21`, the cell number change is reported as -4.92% and the AC50 [1] is reported as 32.6 µM [falling, single point].
Work on `CCN(CC)S(=O)(=O)c1cc(C(=O)Oc2ccccc2OC)ccc1OC` yielded a cell number change of 7.74%.
In the case of `CN(c1cccc(NC(=O)CN(c2ccc(C34CC5CC(CC(C5)C3)C4)cc2)S(C)(=O)=O)c1)S(C)(=O)=O`, the cell number change is reported as -37.5% and the AC50 [2] is reported as 0.82 µM [falling, full curve, poor fit].
For `CCc1nnc(NC(=O)C2CCN(c3ncnc4sc(C)c(C)c34)CC2)s1`, the cell number change was 7%.
With `COc1c(Cl)cc(Cl)cc1C(=O)n1nc(C)cc1C` the cell number change was -35.5%, the AC50 [2] was 0.206 µM [falling, full curve, poor fit] and the AC50 [1] was 18.4 µM [falling, single point].
With `COCCOC1CCN(C(=O)C2CCC(=O)N(Cc3cccc(F)c3)C2)CC1` (stereo unspecified) the cell number change was 5.34% and the AC50 [2] was 6.51 µM [falling, single point].
Compound `CC1CCN(c2c(NCc3ccc(C(=O)N4CCc5ccccc54)cc3)c(=O)c2=O)CC1` has a cell number change of 10.9%.
With `CCc1nnc(NC(=O)CN2CCN(Cc3cccc(Cl)c3)CC2)s1` the cell number change was -22.3% and the AC50 [1] was 29.1 µM [rising, partial curve, poor fit].
With `COC(=O)CN(c1nc(C)cc(OC)n1)S(=O)(=O)c1ccc(C)cc1` the cell number change was -32% and the AC50 [2] was 10.3 µM [falling, partial curve, poor fit].
For `Cc1ccc(-n2c(O)c(/C=N/n3cnnc3)c3ccccc3c2=O)cc1`, the cell number change was -40.2%, the AC50 [2] was 13 µM [falling, partial curve, poor fit] and the AC50 [1] was 16.4 µM [falling, partial curve].
In the case of `CCC1(C)N(O)C(C)(C)C(c2ccc(OC)cc2)=[N+]1[O-]` (stereo unspecified), the cell number change is reported as 4.87%.
With `Cc1c(Br)c([N+](=O)[O-])nn1C(C)C(=O)Nc1c(C)n(C)n(-c2ccccc2)c1=O` (stereo unspecified) the cell number change was -16.9% and the AC50 [2] was 0.231 µM [falling, full curve, poor fit].
Work on `CCOC(=O)c1c(NC(=O)CSc2nnc(-c3ccccc3)o2)sc(C(C)=O)c1C` yielded a cell number change of 21.2%.
In the case of `Cc1cc(SCC(=O)N/N=C/c2ccco2)nc2ccccc12`, the cell number change is reported as -14.9%.
`Cc1cc2ncn(C3CC(=O)N(C)C3=O)c2cc1C` (stereo unspecified) gave a cell number change of -17.6%.
With `CN(C)S(=O)(=O)c1cccc(C(=O)OCC(=O)N2CCCC2=O)c1` the cell number change was -12% and the AC50 [1] was 0.651 µM [falling, full curve].
In the case of `CCN(CC)C(=O)c1cc2c(=O)n3cccc(C)c3nc2s1`, the AC50 [2] is reported as 0.58 µM [rising, single point].
With `COc1ccc(C2CC(C)=C(C#N)S(=O)(=O)C2C#N)cc1` (stereo unspecified) the cell number change was 31.8%, the AC50 [2] was 20.6 µM [rising, partial curve, poor fit] and the AC50 [1] was 5.8 µM [rising, partial curve, poor fit].
